Drawing on PubChem BioAssay AID2685 (National Center for Advancing Translational Sciences (NCATS), 2010), this text covers cell number change and AC50 for 17 molecules.

This experiment is described as follows: qHTS Assay for Lipid Storage Modulators in Drosophila S3 Cells.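 As to cell number change: cells counted by Cell Tracker Red CMTPX staining in the red channel.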 Conditions: BODIPY lipid droplet fluorescence, 18-24 h; for cell number change: measured here: cell count max response, cells fed with added oleic acid. In a few lines: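 Drosophila S3 cells loaded with oleic acid (400 uM, as added) and compounds at several concentrations; lipid droplets imaged by 488-nm laser-scanning cytometry, 500–530 nm intensity and object ratio to cell channel. Percent activity normalized to 20 uM Triacsin C.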
(In qHTS, concentration-response curves come from the screen itself.)

Where [1] appears, read: measured here: cell number channel AC50, cells fed with added oleic acid.
Where [2] appears, read: measured here: lipid fluorescence (Fed channel) AC50, cells fed with added oleic acid.

The list shows a part of the results. Further columns of the screen follow, without active or inactive calls. Most of these compounds were active or inconclusive in the main read-out, so they are no random draw. Potencies come from curve fits of mixed quality, noted in brackets.

For the molecule `Cc1ccc(NC(=O)CCn2cccc2)cc1F`, the cell number change was -17.5%.

Turning to `CC1CC(C)CN(C(=O)CNC(=O)Cn2ccc3ccccc3c2=O)C1` (stereo not drawn), the cell number change is -12.2%. The AC50 under setting [1] is 0.82 µM [falling, single point]. Under setting [2], the AC50 is 0.82 µM [falling, partial curve, poor fit]. As for `CNC(=O)c1[nH]cnc1C(=O)NCC(=O)OC(C)(C)C`, the cell number change came out at 3.59%. The AC50 under setting [2] is 6.51 µM [rising, single point]. Take `COc1cccc(Nc2nc(-c3sc(N)nc3C)cs2)c1`: the AC50 under setting [1] was 2.91 µM [rising, partial curve]. In the case of `CC(C)C(=O)Nc1ccc(C(=O)NNC(=O)CCc2ccccc2)cc1`, the cell number change worked out at 6.35%. In addition, under setting [2], the AC50 is 1.16 µM [falling, single point].

As for `COc1nc2ccccc2cc1-c1noc(-c2cccnc2)n1`, the cell number change is -6.34%. Further, the AC50 under setting [2] is 13 µM [rising, single point]. For the molecule `Cc1ccccc1NS(=O)(=O)c1cc(C(N)=O)ccc1C`, the cell number change worked out at 39.8%. The AC50 under setting [1] is 1.03 µM [rising, partial curve, poor fit]. Under setting [2], the AC50 was 0.326 µM [rising, partial curve, poor fit]. Regarding `CC(=O)N1N=C(c2ccc(C)cc2)OC1c1ccc(C(C)C)cc1` (stereo not drawn), the cell number change was -24.7%. Regarding `COc1cc(C(=O)O[C@H]2C/C(C)=C/CC[C@@]3(C)O[C@@H]3[C@H](O)[C@@H]2C(C)C)cc(OC)c1OC`, the cell number change is -24.8%. The half-maximal activity concentration (AC50) under setting [2] was 18.4 µM [falling, single point]. As to `CCN(CC(=O)Nc1cc(Cl)ccc1C)C(=O)CSCc1ccccc1`, the cell number change was -20.6%. In the case of `O=C(CCCl)Nc1nc2c(s1)CCc1ccccc1-2`, the cell number change is -17.1%. Further, the AC50 under setting [2] was 3.26 µM [falling, partial curve, poor fit]. Regarding `COc1cc(/C=N/NC(=O)c2c(-c3c(Cl)cccc3Cl)noc2C)ccc1OCC(N)=O`, the cell number change is -15.5%. In addition, the AC50 under setting [2] was 0.58 µM [falling, single point]. Turning to `O=C(O)c1ccc(N2CCCCS2(=O)=O)cc1`, the cell number change was determined as 7.54%. In addition, the AC50 under setting [2] was 25.9 µM [rising, single point]. Take `O=C(c1cccnc1)N1CCN(c2ccc3ccccc3n2)CC1`: the cell number change came out at 32.2%. The concentration at half-maximal activity (AC50) under setting [1] was 11.6 µM [rising, single point]. With `CS(=O)(=O)c1cnc2c(-c3ccsc3)cnn2c1N`, the cell number change stood at 16.6%. The AC50 under setting [2] was 3.66 µM [rising, single point]. For `O=C(c1ccccc1NS(=O)(=O)c1cccs1)N1CCCC1`, the cell number change was -35.2%. Besides, under setting [1], the AC50 was 0.00517 µM [falling, full curve, poor fit]. Besides, the half-maximal activity concentration (AC50) under setting [2] is 0.0164 µM [falling, full curve, poor fit].

As for `N#CC1(c2c(O)nc3n(c2=O)CCCS3)CCCCC1`, the cell number change is -17.6%. For the same molecule, under setting [2], the AC50 is 0.0366 µM [falling, full curve, poor fit].

A word on the AC50: it is the midpoint of the concentration-response curve, whichever way the signal moves.
